PMC11284791
These are yes or no findings as the source states them, for the method shown.

Sequences of proteins named here, by UniProt entry; tags and fusion partners are left off.
UniProt P00940: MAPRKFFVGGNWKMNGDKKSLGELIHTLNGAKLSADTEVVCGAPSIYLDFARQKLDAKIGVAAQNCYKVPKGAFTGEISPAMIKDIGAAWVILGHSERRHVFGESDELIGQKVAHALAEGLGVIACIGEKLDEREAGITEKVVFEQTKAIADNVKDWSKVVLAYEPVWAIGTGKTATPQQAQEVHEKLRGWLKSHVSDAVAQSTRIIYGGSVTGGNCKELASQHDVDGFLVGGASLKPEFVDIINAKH

Target: Ribosomal stalk protein L7/L12 (E. coli) (UniProt P0A7K2)
Test: NMR titration; 1H-15N HSQC spectra of [U-15N]-ribosomes upon TPI titration, in vitro, without EF-G; both purified

- binding: no binding
Substance: Triosephosphate isomerase from G. gallus (from UniProt P00940 1-248) (enzyme)
